Source: patent US20160354437A1
No constants are given. Whether binding was seen depends on the method and setting. For part of these data: In cells and extracts the contact can be indirect. Some results given as binding are weak or reduced against the parent protein; the word gives no strength. For part of these data: Sequences can lack the tags named with a protein.

Amino acid sequences for entries named in this document (tags omitted). A change or cut given only in a name is not applied to a line headed by its entry. Residues count along the entry.
UniProt Q16666: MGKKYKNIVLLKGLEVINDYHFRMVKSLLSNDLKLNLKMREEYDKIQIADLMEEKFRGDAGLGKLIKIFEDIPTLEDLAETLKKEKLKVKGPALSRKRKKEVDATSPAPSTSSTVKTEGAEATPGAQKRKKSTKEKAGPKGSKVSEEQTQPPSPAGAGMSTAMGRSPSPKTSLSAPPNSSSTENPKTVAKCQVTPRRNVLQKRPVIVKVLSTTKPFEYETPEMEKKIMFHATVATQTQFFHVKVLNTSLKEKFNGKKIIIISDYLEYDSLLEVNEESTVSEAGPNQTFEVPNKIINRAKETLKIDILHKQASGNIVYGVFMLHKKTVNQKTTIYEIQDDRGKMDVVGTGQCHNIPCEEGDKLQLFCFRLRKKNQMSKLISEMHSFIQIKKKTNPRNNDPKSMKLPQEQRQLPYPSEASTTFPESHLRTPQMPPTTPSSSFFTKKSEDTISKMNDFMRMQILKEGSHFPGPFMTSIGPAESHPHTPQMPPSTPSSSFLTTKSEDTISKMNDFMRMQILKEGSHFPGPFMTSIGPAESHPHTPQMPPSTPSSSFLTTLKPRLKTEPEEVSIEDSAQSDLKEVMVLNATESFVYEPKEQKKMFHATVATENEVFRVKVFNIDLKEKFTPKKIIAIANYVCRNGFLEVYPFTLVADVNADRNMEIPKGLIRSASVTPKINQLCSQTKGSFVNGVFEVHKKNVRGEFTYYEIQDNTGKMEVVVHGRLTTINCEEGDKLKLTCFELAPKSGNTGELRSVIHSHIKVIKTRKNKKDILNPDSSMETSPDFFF
PYD of IFI16: residues 1-88 of Q16666
UniProt Q9ULZ3: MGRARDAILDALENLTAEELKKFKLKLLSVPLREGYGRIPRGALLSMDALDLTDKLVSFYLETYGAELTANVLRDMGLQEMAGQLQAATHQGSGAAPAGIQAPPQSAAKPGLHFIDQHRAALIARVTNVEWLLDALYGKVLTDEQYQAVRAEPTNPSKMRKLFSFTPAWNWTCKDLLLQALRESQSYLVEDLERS
ASC^PYD: residues 1-91 of Q9ULZ3

Columns and labels:
[1] = target: T1, PYD of AIM2 (human) (UniProt O14862); assay: GST pull-down
T1 sequence (looked up): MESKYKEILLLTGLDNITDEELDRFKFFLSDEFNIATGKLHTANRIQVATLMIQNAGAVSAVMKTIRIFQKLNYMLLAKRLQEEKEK

[2] = target: PYD of IFI16 (human) (UniProt Q16666); assay: GST pull-down
[3] = target: IFI16 (human) (UniProt Q16666); assay: co-IP in HEK293 cells
[4] = target: IFI16 (human) (UniProt Q16666); assay: co-IP in HEK293 cells (FIG. 4b)
[5] = target: ASC^PYD (human) (UniProt Q9ULZ3); assay: GST pull-down; co-IP in HEK293 cells
[6] = target: IFI16 (human) (UniProt Q16666); assay: figure title (pull-down, co-IP, co-localisation)
[7] = target: ASC^PYD (human) (UniProt Q9ULZ3); assay: GST pull-down and co-IP in HEK293 cells (FIG. 30)
[8] = target: T1, PYD of AIM2 (human); assay: GST pull-down and co-IP in HEK293 cells (FIG. 31)
[9] = target: PYD of IFI16 (human) (UniProt Q16666); assay: GST pull-down and co-IP in HEK293 cells (FIG. 31)
[10] = target: IFI16 (human) (UniProt Q16666); assay: immunofluorescence co-localisation in hMΦ (FIG. 4e, f)
[11] = target: IFI16 (human) (UniProt Q16666); assay: conclusion of the pull-down, co-IP and cross-linking experiments
[12] = target: endogenous AIM2-ASC complex in MVA-infected THP-1 cells (human) (UniProt O14862+Q9ULZ3); assay: immunoprecipitation of the endogenous complex from THP-1 cells (FIG. 4i)
[13] = target: IFI16 (human) (UniProt Q16666); assay: fluorescence microscopy of hMΦ infected with GFP-POP3 adenovirus (FIG. 35)
[14] = target: T1, PYD of AIM2 (human); assay: GST pull-down (FIG. 4a)
[15] = target: PYD of IFI16 (human) (UniProt Q16666); assay: GST pull-down (FIG. 4a)
[16] = target: T2, AIM2 (human) (UniProt O14862); assay: GST pull-down from THP-1 lysates (FIG. 4g)
T2 sequence (looked up): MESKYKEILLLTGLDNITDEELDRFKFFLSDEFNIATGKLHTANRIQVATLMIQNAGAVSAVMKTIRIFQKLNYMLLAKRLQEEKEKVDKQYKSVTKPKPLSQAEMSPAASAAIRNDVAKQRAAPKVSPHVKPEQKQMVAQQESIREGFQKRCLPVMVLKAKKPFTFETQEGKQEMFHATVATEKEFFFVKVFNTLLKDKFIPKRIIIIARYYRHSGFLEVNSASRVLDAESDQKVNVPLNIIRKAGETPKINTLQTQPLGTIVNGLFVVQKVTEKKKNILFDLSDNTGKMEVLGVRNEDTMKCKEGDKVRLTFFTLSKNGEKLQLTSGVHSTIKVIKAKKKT

[17] = target: IFI16 (human) (UniProt Q16666); assay: GST pull-down from THP-1 lysates (FIG. 4g)
[18] = target: T3, AIM2 from BMDM (mouse) (UniProt Q91VJ1); assay: GST pull-down from BMDM lysates (FIG. 11a)
T3 sequence (looked up): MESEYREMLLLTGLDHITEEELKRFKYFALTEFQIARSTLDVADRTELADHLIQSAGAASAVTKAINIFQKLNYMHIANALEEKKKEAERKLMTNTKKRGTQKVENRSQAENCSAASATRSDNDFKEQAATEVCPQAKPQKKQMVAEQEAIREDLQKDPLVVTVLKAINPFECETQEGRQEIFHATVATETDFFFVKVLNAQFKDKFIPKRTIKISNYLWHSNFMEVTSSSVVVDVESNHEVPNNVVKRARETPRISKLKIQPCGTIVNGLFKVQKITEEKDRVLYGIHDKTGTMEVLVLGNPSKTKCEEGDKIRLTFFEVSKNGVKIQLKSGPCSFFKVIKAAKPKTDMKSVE

[19] = target: T3, AIM2 from BMDM (mouse); assay: figure title; GST pull-down from BMDM lysates
[20] = target: T4, mouse ASC (mouse) (UniProt Q9EPB4); assay: GST pull-down from BMDM lysates
T4 sequence (looked up): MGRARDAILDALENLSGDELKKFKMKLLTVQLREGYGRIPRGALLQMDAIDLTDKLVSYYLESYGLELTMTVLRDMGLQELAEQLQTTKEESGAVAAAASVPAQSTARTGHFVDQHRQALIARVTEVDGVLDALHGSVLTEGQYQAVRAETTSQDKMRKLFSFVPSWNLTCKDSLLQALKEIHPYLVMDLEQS

[21] = target: ASC (human) (UniProt Q9ULZ3); assay: GST pull-down from THP-1 lysates
[22] = target: T4, mouse ASC (mouse); assay: GST pull-down from BMDM lysates (FIG. 22c)
[23] = target: ASC (human) (UniProt Q9ULZ3); assay: GST pull-down from THP-1 lysates (FIG. 18a)
[24] = target: ASC^PYD (human), Q9ULZ3; assay: co-IP with HA antibody in HEK293 cells (FIG. 18d); conditions: remark: other sources report otherwise

Measured: binding

B1: POP3 (protein, not shown: large carriers)
chain: MESKYKEILLLTSLDNITDEELDRFKCFLPDEFNIATGKLHTLNSTSSQLDLKRWHGVCSEEDRIFQKLNYMLVAKCLREEQETGICGSPSSARSVSQSRLGLSFHGISGNAC
binds: [1] | [2] | [3] | [4] | [5] | [6] | [7] | [8] | [9] | [10] | [11] | [12] | [13]

B2: GST-POP3 (protein, not shown: a dimerising Fc or GST)
chain: B1 chain
binds: [14] | [15] | [16] | [17] | [18] | [19]

B3: GST-POP1 (protein, not shown: a dimerising Fc or GST)
chain: MGTKREAILKVLENLTPEELKKFKMKLGTVPLREGFERIPRGALGQLDIVDLTDKLVASYYEDYAAELVVAVLRDMRMLEEAARLQRAA
binds: [20] | [21] | [22] | [23]

B4: GFP-POP1, Q8WXC3 1-89 (protein, not shown: large carriers)
chain: B3 chain
binds: [24]
